Experimental data reported in patent US20250020635A1, “ASSAY METHODS AND USES THEREOF FOR SCREENING ALZHEIMER'S DISEASE TREATMENT COMPOUNDS” (priority 2023, published 2025).
At least one compound was matched to its structure with a doubt left.

System: BV2 cells
Assay: Microglial phagocytosis/cell health high-content assay, BV2 cells
Format: cell-based
Details: 48 hours treatment
Description: The assay introduced here is a simplified cellular imaging assay without any fixation and washing steps, while producing multiparameter measurements with high capacity using a 384-well plate format. The assay procedures include plating cells on day 1, incubating cell plates overnight before treating cells on day 2, adding pHrodo™-myelin/membrane debris to cell plates on day 3, and 20 hr later, staining cell nuclei with Hoechst-33342 for 30 min before performing high-content imaging on day 4. Three selected parameters are measured from cells: 1) mean total fluorescence intensity per cell of pHrodo™-myelin/membrane debris in phagocytosis vesicles to quantify phagocytosis; 2) cell counts per well to quantify treatment effects on proliferation and cell death; and 3) average nuclear intensity to quantify treatment-induced nuclear changes such as in apoptosis. […]
To ensure that the measurements reflect the steady state of compound treatment effects and cell health, the assay was set with a total compound treatment time of 48 hr, including pHrodo™-myelin/membrane debris seeding performed 20-24 hr after compound addition. […] Among many available quantitative measurements from the image analysis, we selected three parameters for the assay: […]

CN1CCN(CCOc2cc(OC3CCOCC3)c3c(Nc4c(Cl)ccc5c4OCO5)ncnc3c2)CC1 [Saracatinib, reference compound]
effect on phagocytosis: no stimulated phagocytosis in the sub-μM concentration range
